PubChem BioAssay AID1508588 | Peter MacCallum Cancer Centre – 2020

Screen: 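Knock-downs boosting vemurafenib effects on melanoma cell growth or lactate release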 (primary screen)
Cell system: human WM266.4 melanoma cells (BRAF V600 mutant)
Reagent: siRNA pool against human genes, 40 nM
Duration: 96 h from transfection to read-out
Treatment: vemurafenib 300 nM (about IC25), added 48 h after transfection, for 48 h; comparison arm got DMSO vehicle only
Measurement: 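Ratios to non-targeting siRNA for cell gain, counted as DAPI nuclei after minus before drug and averaged over two replicates, and for absorbance-read medium lactate per cell; both binned into fold-change classes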
Direction: cell gain with vemurafenib: higher = more cell gain than with non-targeting siRNA; lactate per cell with vemurafenib: higher = more lactate made per cell
Hit rule: 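Enhancement is called by pairing each knock-down's vehicle-arm and drug-arm fold-change classes for viability or glycolysis; which class combinations qualify is not given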
Calls: active = enhances vemurafenib effect; inactive = no enhancement seen
This is a random part of about 18,000 deposited reagents. Over the whole deposit, 790 (4.4%) got an active call. 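Calls rest on a combination of fold-change classes in drug and vehicle arms, not all shown here.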

Silencing of CCT2 (chaperonin containing TCP1 subunit 2) resulted in: cell gain with vemurafenib 0.48; lactate per cell with vemurafenib 1.91; inactive.
For CCK (cholecystokinin), the values are cell gain with vemurafenib 0.44; lactate per cell with vemurafenib 0.96; inactive.
Silencing of CXCR3 (C-X-C motif chemokine receptor 3) gave: cell gain with vemurafenib 0.4; lactate per cell with vemurafenib 1.62; inactive.
With knock-down of CIMIP6 (ciliary microtubule inner protein 6), the record shows cell gain with vemurafenib 1.2; lactate per cell with vemurafenib 0.68; inactive.
Knock-down of LOC642678 (retired record) came out at: cell gain with vemurafenib 1.02; lactate per cell with vemurafenib 0.51; inactive.
Depletion of CBLN2 (cerebellin 2 precursor) came out at: cell gain with vemurafenib 0; lactate per cell with vemurafenib 0.74; inactive.
Depletion of KCTD7 (potassium channel tetramerization domain containing 7) resulted in: cell gain with vemurafenib 0.84; lactate per cell with vemurafenib 0.5; inactive.
After knock-down of CD33 (CD33 molecule) the results were cell gain with vemurafenib 0.74; lactate per cell with vemurafenib 0.73; inactive.
After knock-down of SPP2 (secreted phosphoprotein 2), the record shows cell gain with vemurafenib 0.74; lactate per cell with vemurafenib 0.48; active.
Depletion of MRPL10 (mitochondrial ribosomal protein L10) came out at: cell gain with vemurafenib 0.38; lactate per cell with vemurafenib 1.92; inactive.
SGSM1 (small G protein signaling modulator 1) scored cell gain with vemurafenib 0.98; lactate per cell with vemurafenib 0.98; inactive.
MYEOV (myeloma overexpressed) gave cell gain with vemurafenib 0.51; lactate per cell with vemurafenib 0.54; inactive.
CANT1 (calcium activated nucleotidase 1) gave cell gain with vemurafenib 1.08; lactate per cell with vemurafenib 0.84; inactive.
Depletion of BAAT (bile acid-CoA:amino acid N-acyltransferase) resulted in: cell gain with vemurafenib 0.81; lactate per cell with vemurafenib 0.5; inactive.
Against CCDC74A (coiled-coil domain containing 74A) the deposit lists cell gain with vemurafenib 1.12; lactate per cell with vemurafenib 1.3; inactive.
Against FRZB (frizzled related protein), the values are cell gain with vemurafenib 0.84; lactate per cell with vemurafenib 1.24; inactive.
Silencing of RPGRIP1 (RPGR interacting protein 1) gave: cell gain with vemurafenib 0.13; lactate per cell with vemurafenib 1.42; inactive.
With knock-down of KMO (kynurenine 3-monooxygenase), the screen gave cell gain with vemurafenib 0.25; lactate per cell with vemurafenib 1.44; inactive.
After knock-down of ATF1 (activating transcription factor 1), the record shows cell gain with vemurafenib 0.7; lactate per cell with vemurafenib 0.9; inactive.
Depletion of GJB6 (gap junction protein beta 6) gave: cell gain with vemurafenib 0.56; lactate per cell with vemurafenib 0.82; inactive.
After knock-down of PEX7 (peroxisomal biogenesis factor 7), the record shows cell gain with vemurafenib 0.9; lactate per cell with vemurafenib 0.73; inactive.
GALNT3 (polypeptide N-acetylgalactosaminyltransferase 3) showed cell gain with vemurafenib 0.77; lactate per cell with vemurafenib 1.11; inactive.
SNAP47 (synaptosome associated protein 47) showed cell gain with vemurafenib 0.52; lactate per cell with vemurafenib 0.43; inactive.
Against PHF1 (PHD finger protein 1) the deposit lists cell gain with vemurafenib 0.36; lactate per cell with vemurafenib 0.94; inactive.
With knock-down of RNF111 (ring finger protein 111) the results were cell gain with vemurafenib 0.53; lactate per cell with vemurafenib 0.79; inactive.
After knock-down of TOR1AIP1 (torsin 1A interacting protein 1) the results were cell gain with vemurafenib 0.58; lactate per cell with vemurafenib 0.57; inactive.
DDX11 (DEAD/H-box helicase 11) scored cell gain with vemurafenib 0.64; lactate per cell with vemurafenib 0.14; inactive.

Quoted from the listing, 2 entries:
CIMIP6 (ciliary microtubule inner protein 6) — cell gain with vemurafenib: 1.2; lactate per cell with vemurafenib: 0.68; activity call: inactive
LOC642678 (retired record) — cell gain with vemurafenib: 1.02; lactate per cell with vemurafenib: 0.51; activity call: inactive
